Measurements as given in patent publication US20240033259A1, “COMPOSITIONS AND METHODS FOR TREATING OR PREVENTING DISEASE ASSOCIATED WITH BETA CORONAVIRUS INFECTION” (priority 2020, published 2024).

How the values were obtained:
SARS-CoV-2 = format: cell-based
in vitro = details: African green monkey

COc1ccc2cc(C(C)C(=O)O)ccc2c1 (stereo not drawn) [Naproxen, 6-methoxy-α-methyl-2-naphthaleneacetic acid]
inhibition of SARS-CoV-2 / viral yield (in words) (SARS-CoV-2): did not inhibit SARS-CoV-2
CC50 (in vitro): > 400 µM
